The record followed here is PMC10674588.

Amino acid sequences for entries named in this document (tags omitted). Residues count along the entry.
UniProt P08962, 2-238: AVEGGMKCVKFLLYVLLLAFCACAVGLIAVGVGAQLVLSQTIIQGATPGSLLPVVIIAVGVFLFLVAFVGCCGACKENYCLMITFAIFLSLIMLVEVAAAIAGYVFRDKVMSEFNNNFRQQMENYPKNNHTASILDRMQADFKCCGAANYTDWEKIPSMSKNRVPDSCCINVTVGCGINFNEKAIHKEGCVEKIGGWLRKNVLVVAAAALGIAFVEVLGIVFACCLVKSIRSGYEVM
UniProt P16422, 24-314: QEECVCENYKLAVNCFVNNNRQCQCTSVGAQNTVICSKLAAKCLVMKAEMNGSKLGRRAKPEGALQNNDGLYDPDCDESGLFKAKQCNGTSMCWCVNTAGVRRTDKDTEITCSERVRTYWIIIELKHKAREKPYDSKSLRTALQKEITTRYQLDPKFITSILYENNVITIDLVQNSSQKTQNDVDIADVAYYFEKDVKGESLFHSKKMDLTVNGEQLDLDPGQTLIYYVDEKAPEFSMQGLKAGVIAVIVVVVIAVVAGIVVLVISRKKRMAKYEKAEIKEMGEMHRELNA

The exact form of at least one protein or probe is not confirmed. Results from cells or extracts need not show a direct contact. Negatives hold for the conditions tested. At least one verdict was read from the data and is not stated in words by the source.

The target in data set [1] is CD63 (on HeLa cell-derived exosomes) (UniProt P08962). Description: electrochemical nanochannel (I-V) capture of exosomes. To be noted: whole exosomes, response similar to bare film; 5' CHO-(CH2)6; HeLa exosomes (resuspended in PBS) on BSA-blocked aptamer-PAA film, 120 min; I-V at -1.2 V, 10 mM KCl electrolyte (stated for film characterization); protein on the cell surface; single-stranded DNA.

For data set [2], the target named is EpCAM (on HeLa cell-derived exosomes) (UniProt P16422). The data set is described as above. The note with it: whole exosomes, response similar to bare film; 5' CHO-(CH2)6; HeLa exosomes (resuspended in PBS) on BSA-blocked aptamer-PAA film, 120 min; I-V at -1.2 V, 10 mM KCl electrolyte (stated for film characterization); protein on the cell surface; single-stranded DNA.

Turning to GGGGTGGGGTAGTGGTATGGAGCG [Random DNA], the binding result in data set [1] and in data set [2] was “no binding” in each case.
